Measured values from patent publication US11104673B2 (priority 2014, dated 2021).

Assay: peptide synthesis
Conditions: conjugation step

| Substance | conjugation yield [% yield] |
| --- | --- |
| (2R)-2-((2S,3S)-1-(((1R,3R)-1-acetoxy-1-(4-((2R,4S)-4-carboxy-1-phenylpentan-2-ylcarbamoyl)thiazol-2-yl)-4-methylpentan-3-yl)(methyl)amino)-3-methyl-1-oxopentan-2-ylcarbamoyl)-1-(4-((S)-2-(1-(5-(2,5-dioxo-2,5-dihydro-1H-pyrrol-1-yl)pentylcarbamoyl)cyclobutanecarboxamido)-5-ureidopentanamido)benzyl)-1-methylpiperidinium | 31.64 |
| (2S,4R)-4-[[2-[(1R,3R)-1-acetoxy-4-methyl-3-[methyl-[(2S,3S)-3-methyl-2-[[(2R)-1-methyl-1-[[4-[[(2R)-2-[(6-nitro-3-pyridyl)disulfanyl]propoxy]carbonylamino]phenyl]methyl]piperidin-1-ium-2-carbonyl]amino]pentanoyl]amino]pentyl]thiazole-4-carbonyl]amino]-2-methyl-5-phenyl-pentanoic Acid | 32 |
| [4-[[(2S)-2-[[1-[5-(2,5-dioxopyrrol-1-yl)pentylcarbamoyl]cyclobutanecarbonyl]amino]-5-ureido-pentanoyl]amino]phenyl]methyl-[(1S)-1-[[(1S)-1-[[(1S,2R)-2-methoxy-4-[(2S)-2-[(1R,2R)-1-methoxy-2-methyl-3-oxo-3-[[(1S)-2-phenyl-1-thiazol-2-yl-ethyl]amino]propyl]pyrrolidin-1-yl]-1-[(1S)-1-methylpropyl]-4-oxo-butyl]-methyl-carbamoyl]-2-methyl-propyl]carbamoyl]-2-methyl-propyl]-dimethyl-ammonium | 7.9 |
